# Some peptides are written in HELM: one residue between dots, names in brackets for other building blocks, links after the first $.
# Experiment: peptide made by a vendor
# Settings: whole synthesis
row,Substance,purity (crude or final not stated) [%]
1,PEPTIDE1{G.W.G.S.F.F.K.K.A.A.H.V.G.K.H.V.G.K.A.A.L.T.H.Y.L}$$$$V2.0,96.68
2,PEPTIDE1{G.W.G.S.F.F.K.K.A.A.H.V.G.K}$$$$V2.0,95.59
3,PEPTIDE1{G.W.K.K.F.F.K.K.W.K.H.V.W.K}$$$$V2.0,95.52
4,PEPTIDE1{G.W.K.S.F.F.K.K.F.K.H.V.W.K}$$$$V2.0,95.58
5,PEPTIDE1{G.W.K.S.F.F.K.K.W.K.H.V.W.K}$$$$V2.0,95.35

# From article PMC9610943 (Pharmaceutics, 2022)
